# Some of the results follow.
# Protein sequences, listed by entry. Tags and fused reporters are not part of them. Lines headed by an entry give the natural chain unless they say otherwise; changes in a name come on top.
# UniProt Q9H496: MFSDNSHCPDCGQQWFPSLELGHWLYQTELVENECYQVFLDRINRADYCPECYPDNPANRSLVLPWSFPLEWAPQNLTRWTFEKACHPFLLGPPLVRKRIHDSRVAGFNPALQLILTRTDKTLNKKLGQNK
# UniProt Q71RG4: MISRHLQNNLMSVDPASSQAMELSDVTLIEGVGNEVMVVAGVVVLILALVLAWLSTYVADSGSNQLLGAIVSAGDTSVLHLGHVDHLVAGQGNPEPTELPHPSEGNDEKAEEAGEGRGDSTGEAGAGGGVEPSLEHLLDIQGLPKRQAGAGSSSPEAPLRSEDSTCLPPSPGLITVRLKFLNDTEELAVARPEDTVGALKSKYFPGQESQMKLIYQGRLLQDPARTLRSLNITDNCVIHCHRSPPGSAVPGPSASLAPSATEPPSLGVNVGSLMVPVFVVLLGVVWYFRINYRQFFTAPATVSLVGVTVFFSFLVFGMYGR
# UniProt Q96HV5: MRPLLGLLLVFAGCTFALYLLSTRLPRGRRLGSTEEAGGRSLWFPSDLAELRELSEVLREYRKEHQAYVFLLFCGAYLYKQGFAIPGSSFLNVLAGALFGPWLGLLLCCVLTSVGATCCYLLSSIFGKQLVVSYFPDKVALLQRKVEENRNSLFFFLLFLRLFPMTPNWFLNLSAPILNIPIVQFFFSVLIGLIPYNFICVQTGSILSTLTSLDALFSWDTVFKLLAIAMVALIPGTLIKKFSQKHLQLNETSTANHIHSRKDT
# UniProt O43399: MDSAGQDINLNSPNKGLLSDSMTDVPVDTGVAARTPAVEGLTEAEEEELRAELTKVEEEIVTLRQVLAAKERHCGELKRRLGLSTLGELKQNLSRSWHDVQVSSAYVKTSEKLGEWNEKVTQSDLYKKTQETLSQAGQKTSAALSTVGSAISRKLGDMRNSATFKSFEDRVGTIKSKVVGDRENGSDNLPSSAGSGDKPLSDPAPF
# UniProt Q15628: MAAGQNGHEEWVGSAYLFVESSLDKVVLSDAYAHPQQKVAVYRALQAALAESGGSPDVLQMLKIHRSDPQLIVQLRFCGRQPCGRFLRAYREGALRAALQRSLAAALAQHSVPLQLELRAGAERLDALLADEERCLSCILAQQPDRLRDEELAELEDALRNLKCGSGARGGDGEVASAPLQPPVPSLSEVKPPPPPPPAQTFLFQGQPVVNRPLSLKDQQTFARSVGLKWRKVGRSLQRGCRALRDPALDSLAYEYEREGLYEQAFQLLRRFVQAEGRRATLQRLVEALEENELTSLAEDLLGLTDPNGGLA
# UniProt Q9P0T7: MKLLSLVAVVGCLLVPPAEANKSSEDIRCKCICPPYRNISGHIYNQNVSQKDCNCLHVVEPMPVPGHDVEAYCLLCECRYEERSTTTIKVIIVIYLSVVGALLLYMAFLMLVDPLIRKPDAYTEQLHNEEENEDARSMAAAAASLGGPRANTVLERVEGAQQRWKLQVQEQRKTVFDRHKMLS
# UniProt Q9H0R3: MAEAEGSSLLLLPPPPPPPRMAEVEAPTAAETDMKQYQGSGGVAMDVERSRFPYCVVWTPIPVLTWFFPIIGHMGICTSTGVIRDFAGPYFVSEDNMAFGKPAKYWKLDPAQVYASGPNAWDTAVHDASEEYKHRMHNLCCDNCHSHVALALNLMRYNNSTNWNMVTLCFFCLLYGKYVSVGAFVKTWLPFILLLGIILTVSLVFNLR
# UniProt Q6ZT21: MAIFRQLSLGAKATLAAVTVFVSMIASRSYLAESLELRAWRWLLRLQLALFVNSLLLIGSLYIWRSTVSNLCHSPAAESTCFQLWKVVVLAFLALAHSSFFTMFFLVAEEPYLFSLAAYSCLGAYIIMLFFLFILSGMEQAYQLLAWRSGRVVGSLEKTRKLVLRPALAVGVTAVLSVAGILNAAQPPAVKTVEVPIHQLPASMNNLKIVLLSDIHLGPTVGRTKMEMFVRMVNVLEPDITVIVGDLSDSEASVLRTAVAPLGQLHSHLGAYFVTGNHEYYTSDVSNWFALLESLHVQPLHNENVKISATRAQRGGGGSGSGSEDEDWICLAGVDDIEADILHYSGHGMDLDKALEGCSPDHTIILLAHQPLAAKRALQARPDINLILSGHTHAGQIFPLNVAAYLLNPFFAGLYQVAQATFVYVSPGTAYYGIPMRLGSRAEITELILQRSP
# UniProt Q9UKE5: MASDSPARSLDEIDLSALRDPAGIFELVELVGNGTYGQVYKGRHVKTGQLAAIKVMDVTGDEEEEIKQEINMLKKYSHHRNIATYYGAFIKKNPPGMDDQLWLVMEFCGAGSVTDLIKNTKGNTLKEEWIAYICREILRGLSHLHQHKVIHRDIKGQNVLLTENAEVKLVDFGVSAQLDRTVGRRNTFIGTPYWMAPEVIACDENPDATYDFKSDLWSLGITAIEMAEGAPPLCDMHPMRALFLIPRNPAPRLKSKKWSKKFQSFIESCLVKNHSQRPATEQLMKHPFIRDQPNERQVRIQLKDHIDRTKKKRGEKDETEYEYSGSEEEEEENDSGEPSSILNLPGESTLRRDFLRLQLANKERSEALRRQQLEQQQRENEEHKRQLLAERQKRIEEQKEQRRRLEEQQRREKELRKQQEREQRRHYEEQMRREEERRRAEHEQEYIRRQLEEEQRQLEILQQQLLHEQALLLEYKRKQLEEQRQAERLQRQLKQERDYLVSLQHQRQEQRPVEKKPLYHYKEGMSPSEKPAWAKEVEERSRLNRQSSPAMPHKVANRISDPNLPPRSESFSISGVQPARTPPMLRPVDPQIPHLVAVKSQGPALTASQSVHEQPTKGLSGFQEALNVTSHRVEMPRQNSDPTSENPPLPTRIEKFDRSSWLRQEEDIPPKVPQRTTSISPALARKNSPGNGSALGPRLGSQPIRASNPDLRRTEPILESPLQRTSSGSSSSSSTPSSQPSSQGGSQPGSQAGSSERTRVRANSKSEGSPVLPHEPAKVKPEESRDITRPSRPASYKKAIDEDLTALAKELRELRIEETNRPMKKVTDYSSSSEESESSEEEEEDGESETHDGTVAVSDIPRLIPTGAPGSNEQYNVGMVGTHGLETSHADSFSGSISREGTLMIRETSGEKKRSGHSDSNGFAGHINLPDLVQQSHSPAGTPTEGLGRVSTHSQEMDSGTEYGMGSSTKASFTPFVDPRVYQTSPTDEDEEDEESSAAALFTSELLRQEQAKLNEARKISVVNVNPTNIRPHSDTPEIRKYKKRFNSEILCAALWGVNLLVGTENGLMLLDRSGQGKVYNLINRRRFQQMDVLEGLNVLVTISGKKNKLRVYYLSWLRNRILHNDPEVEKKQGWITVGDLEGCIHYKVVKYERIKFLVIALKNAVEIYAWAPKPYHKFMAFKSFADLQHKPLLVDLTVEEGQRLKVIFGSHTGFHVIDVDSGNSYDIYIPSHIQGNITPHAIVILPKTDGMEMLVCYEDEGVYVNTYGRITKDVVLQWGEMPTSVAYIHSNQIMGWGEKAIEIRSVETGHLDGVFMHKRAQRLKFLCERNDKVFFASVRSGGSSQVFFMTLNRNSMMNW
# UniProt Q8IY95: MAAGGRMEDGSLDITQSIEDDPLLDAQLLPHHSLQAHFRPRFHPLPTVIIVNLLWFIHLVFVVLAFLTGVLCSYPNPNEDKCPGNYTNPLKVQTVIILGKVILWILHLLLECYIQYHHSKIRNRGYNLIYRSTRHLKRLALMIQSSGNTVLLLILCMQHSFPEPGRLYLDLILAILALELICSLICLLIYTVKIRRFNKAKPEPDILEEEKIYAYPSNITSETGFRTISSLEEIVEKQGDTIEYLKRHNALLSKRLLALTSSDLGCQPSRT
# UniProt Q8NDV7: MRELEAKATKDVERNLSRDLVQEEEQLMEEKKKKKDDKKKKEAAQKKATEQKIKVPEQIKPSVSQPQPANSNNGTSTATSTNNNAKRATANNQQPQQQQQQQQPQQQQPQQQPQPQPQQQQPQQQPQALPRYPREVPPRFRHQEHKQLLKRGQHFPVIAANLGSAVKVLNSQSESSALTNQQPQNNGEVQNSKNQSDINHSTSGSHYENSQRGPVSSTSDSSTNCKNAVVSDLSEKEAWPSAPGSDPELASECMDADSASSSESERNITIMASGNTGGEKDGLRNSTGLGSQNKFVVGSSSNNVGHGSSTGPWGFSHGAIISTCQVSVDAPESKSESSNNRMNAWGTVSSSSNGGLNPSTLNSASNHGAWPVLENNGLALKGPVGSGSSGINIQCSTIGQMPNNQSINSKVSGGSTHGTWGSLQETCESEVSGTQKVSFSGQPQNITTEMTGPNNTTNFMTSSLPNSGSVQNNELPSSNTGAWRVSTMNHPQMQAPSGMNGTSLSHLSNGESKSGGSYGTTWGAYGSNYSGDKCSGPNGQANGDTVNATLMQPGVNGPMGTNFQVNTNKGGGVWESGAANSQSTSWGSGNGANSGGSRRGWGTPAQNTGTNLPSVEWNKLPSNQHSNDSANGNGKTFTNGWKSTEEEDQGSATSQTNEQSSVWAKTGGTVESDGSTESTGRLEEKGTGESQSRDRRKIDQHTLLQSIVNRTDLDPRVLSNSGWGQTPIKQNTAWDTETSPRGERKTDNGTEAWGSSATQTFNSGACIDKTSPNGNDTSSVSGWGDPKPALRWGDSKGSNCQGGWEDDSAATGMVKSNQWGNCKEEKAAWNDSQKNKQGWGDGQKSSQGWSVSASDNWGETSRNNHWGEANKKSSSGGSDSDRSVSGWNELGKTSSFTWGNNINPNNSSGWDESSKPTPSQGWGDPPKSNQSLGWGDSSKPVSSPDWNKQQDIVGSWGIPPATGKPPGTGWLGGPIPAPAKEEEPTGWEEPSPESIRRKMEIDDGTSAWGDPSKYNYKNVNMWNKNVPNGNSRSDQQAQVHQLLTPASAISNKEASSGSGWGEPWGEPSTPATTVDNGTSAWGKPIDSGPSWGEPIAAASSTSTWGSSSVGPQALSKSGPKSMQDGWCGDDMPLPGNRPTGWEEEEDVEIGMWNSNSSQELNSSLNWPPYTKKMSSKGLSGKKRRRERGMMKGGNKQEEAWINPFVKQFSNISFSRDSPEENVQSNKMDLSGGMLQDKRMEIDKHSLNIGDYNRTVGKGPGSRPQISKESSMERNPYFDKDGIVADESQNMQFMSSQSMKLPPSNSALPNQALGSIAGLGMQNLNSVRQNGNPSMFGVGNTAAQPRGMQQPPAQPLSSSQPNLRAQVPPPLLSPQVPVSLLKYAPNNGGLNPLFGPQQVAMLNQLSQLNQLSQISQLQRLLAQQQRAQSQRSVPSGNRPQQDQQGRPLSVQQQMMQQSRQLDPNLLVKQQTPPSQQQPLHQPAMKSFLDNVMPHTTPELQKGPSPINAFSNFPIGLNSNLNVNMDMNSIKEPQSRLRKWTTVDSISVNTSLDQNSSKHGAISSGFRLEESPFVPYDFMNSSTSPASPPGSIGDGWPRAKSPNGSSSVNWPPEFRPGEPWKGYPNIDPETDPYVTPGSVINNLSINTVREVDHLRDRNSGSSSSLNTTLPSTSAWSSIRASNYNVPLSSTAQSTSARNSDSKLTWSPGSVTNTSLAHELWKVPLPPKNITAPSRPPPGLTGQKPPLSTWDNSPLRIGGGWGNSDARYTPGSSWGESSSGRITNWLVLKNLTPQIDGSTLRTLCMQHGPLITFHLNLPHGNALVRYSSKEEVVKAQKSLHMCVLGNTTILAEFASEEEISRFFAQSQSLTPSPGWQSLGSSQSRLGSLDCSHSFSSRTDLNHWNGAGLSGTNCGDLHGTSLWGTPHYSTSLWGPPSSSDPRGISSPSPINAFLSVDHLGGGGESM
# UniProt Q59H18: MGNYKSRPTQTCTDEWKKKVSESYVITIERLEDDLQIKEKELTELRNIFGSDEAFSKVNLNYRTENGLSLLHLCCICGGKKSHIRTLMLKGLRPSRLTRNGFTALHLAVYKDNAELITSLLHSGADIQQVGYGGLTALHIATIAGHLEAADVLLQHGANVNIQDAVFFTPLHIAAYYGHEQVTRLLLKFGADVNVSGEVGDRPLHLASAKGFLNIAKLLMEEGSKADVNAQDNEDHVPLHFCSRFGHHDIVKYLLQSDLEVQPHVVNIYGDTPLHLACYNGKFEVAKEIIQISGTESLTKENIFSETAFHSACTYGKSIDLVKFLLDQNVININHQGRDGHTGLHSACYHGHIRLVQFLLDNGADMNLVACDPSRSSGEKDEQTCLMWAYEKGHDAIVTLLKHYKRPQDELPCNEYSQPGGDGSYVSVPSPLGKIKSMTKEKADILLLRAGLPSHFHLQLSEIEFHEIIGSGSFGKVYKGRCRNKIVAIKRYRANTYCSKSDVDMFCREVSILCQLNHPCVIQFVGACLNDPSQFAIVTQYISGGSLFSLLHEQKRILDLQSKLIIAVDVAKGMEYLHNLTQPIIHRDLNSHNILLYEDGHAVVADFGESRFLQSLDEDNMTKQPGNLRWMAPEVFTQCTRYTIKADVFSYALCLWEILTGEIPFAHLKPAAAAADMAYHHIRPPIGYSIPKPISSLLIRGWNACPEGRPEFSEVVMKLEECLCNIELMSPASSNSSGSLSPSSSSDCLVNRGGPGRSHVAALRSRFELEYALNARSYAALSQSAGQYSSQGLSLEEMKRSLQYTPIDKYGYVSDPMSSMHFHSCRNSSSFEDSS
# Key:
# Assay in all cases: log2 fold change, soluble protein after heating vs DMSO (PISA); higher = thermal stabilisation; K562 lysate, 10 uM; active = over 0.2 and 3.5 SD of the protein, either way, in both replicates (recomputed)
# lapatinib = compound: CS(=O)(=O)CCNCc1ccc(-c2ccc3ncnc(Nc4ccc(OCc5cccc(F)c5)c(Cl)c4)c3c2)o1 [lapatinib]
# Summary of the method: (§1)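 Pellets of K562 cells were dounce-homogenised in PBS pH 7.4 with 1 mM MgCl2, and the crude extract was held at 1 mg/mL protein for a 30 min treatment with 10 μM compound. Aliquots were heated for 3 min over 48°C-58°C and pooled before NP-40 was added to 0.5% at 4°C. The supernatant from 21,000xg for 90 min was quantified by TMTpro 16plex LC-MS/MS with channel sums equalised. Values are reported from duplicates as log-two fold change in thermal stability relative to solvent controls.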
# pictilisib = compound: CS(=O)(=O)N1CCN(Cc2cc3nc(-c4cccc5[nH]ncc45)nc(N4CCOCC4)c3s2)CC1 [pictilisib]
# Summary of the method: as §1
# crizotinib = compound: C[C@@H](Oc1cc(-c2cnn(C3CCNCC3)c2)cnc1N)c1c(Cl)ccc(F)c1Cl [crizotinib]
# Summary of the method: as §1
# [1] = compound: C[C@H](C1=CC=C(C=C1)C(=O)NC2=C3C=CNC3=NC=C2)N
# Summary of the method: as §1
# duvelisib = compound: C[C@H](Nc1ncnc2nc[nH]c12)c1cc2cccc(Cl)c2c(=O)n1-c1ccccc1 [duvelisib]
# Summary of the method: as §1
# gandotinib = compound: Cc1cc(Nc2cc(CN3CCOCC3)c3nc(C)c(Cc4ccc(Cl)cc4F)n3n2)n[nH]1 [gandotinib]
# Summary of the method: as §1
# tozasertib = compound: Cc1cc(Nc2cc(N3CCN(C)CC3)nc(Sc3ccc(NC(=O)C4CC4)cc3)n2)n[nH]1 [tozasertib]
# Summary of the method: as §1
# doramapimod = compound: Cc1ccc(-n2nc(C(C)(C)C)cc2NC(=O)Nc2ccc(OCCN3CCOCC3)c3ccccc23)cc1 [doramapimod]
# Summary of the method: as §1
# bafetinib = compound: Cc1ccc(NC(=O)c2ccc(CN3CC[C@H](N(C)C)C3)c(C(F)(F)F)c2)cc1Nc1nccc(-c2cncnc2)n1 [bafetinib]
# Summary of the method: as §1
# [2] = compound: Cc1cccc(CC(=O)N2CCc3c2ccc(-c2cn(C)c4ncnc(N)c24)c3F)n1
# Summary of the method: as §1
Target,log2 fold change (lapatinib),log2 fold change (pictilisib),log2 fold change (crizotinib),log2 fold change [1],log2 fold change (duvelisib),log2 fold change (gandotinib),log2 fold change (tozasertib),log2 fold change (doramapimod),log2 fold change (bafetinib),log2 fold change [2]
TMOD2 (UniProt Q9NZR1),inactive: 0.009,inactive: 0.019,inactive: -0.027,inactive: -0.04,inactive: -0.007,inactive: 0.056,inactive: 0.022,inactive: 0.006,inactive: 0.018,inactive: 0.131
TNFRSF10B (UniProt O14763),inactive: -0.003,inactive: -0.016,inactive: 0.031,inactive: -0.061,inactive: -0.01,inactive: 0.006,inactive: 0.086,inactive: -0.019,inactive: -0.034,inactive: 0.005
TOR1AIP2 (UniProt Q9H496),inactive: -0.088,inactive: -0.027,inactive: -0.023,inactive: -0.066,inactive: 0.119,inactive: 0.111,inactive: -0.061,inactive: -0.06,inactive: 0.083,inactive: 0.05
TOX4 (UniProt O94842),inactive: 0.058,inactive: 0.025,inactive: -0.068,active: -0.259,inactive: 0.06,active: 0.231,inactive: -0.094,inactive: 0.041,inactive: -0.043,inactive: 0.189
TMUB2 (UniProt Q71RG4),inactive: 0.011,inactive: -0.007,inactive: -0.01,inactive: 0.072,inactive: 0.114,inactive: -0.021,inactive: -0.122,inactive: -0.085,inactive: -0.02,inactive: 0.021
TNPO1 (UniProt Q92973),inactive: -0.022,inactive: 0.005,inactive: -0.003,inactive: 0.065,inactive: 0.023,inactive: -0.087,inactive: -0.018,inactive: 0.009,inactive: -0.008,inactive: -0.042
TMEM41A (UniProt Q96HV5),inactive: 0.009,inactive: 0.003,inactive: 0.047,inactive: -0.102,inactive: -0.003,inactive: 0.125,inactive: 0.027,inactive: 0.045,inactive: 0.057,inactive: 0.024
TOR1AIP1 isoform 3 (UniProt Q5JTV8),inactive: -0.017,inactive: -0.012,inactive: 0.008,inactive: -0.043,inactive: -0.031,inactive: 0.048,inactive: -0.019,inactive: -0.008,inactive: 0.018,inactive: 0.087
TMEM33 (UniProt P57088),inactive: -0.032,inactive: 0.012,inactive: -0.022,inactive: -0.034,inactive: -0.036,inactive: 0.067,inactive: -0.022,inactive: 0.011,inactive: -0.055,inactive: 0.019
TPRKB (UniProt Q9Y3C4),inactive: 0.012,inactive: 0.033,inactive: 0.009,inactive: 0.003,inactive: 0.028,inactive: 0.016,inactive: -0.092,inactive: -0.016,inactive: 0.048,inactive: -0.008
TMEM263 (UniProt Q8WUH6),inactive: 0.149,inactive: 0.015,inactive: 0.06,inactive: -0.072,inactive: 0.02,inactive: 0.178,inactive: -0.066,inactive: 0.112,inactive: -0.028,inactive: 0.208
TOM1L1 (UniProt O75674),inactive: -0.002,inactive: -0.047,inactive: -0.008,inactive: -0.01,inactive: -0.023,inactive: 0.025,inactive: -0.054,inactive: 0,inactive: -0.011,inactive: 0.008
TPD52L2 isoform 7 (UniProt O43399),inactive: 0.039,inactive: 0.003,inactive: 0.095,inactive: -0.124,inactive: -0.022,active: 0.222,inactive: 0.043,inactive: 0.03,inactive: 0.139,inactive: 0.057
TRADD (UniProt Q15628),inactive: -0.015,inactive: -0.011,inactive: -0.003,inactive: -0.022,inactive: -0.081,inactive: -0.03,inactive: -0.011,inactive: -0.022,inactive: -0.034,inactive: 0.035
TPT1 (UniProt E9PJF7),inactive: -0.077,inactive: -0.531,inactive: 0.086,inactive: -0.056,–,inactive: -0.234,–,inactive: -0.019,inactive: -0.158,inactive: -0.584
TPM1 isoform 4 (UniProt P09493),inactive: 0.032,inactive: -0.051,inactive: 0.001,inactive: 0.061,inactive: -0.029,inactive: -0.142,inactive: 0.013,inactive: 0.012,inactive: 0.011,inactive: -0.142
TMEM9 (UniProt Q9P0T7),inactive: -0.007,inactive: -0.016,inactive: 0.025,inactive: 0.002,inactive: 0.004,inactive: -0.027,–,inactive: -0.047,inactive: 0.046,inactive: 0.006

Target,log2 fold change (lapatinib),log2 fold change (pictilisib),log2 fold change (crizotinib),log2 fold change [1],log2 fold change (duvelisib),log2 fold change (gandotinib),log2 fold change (tozasertib),log2 fold change (doramapimod),log2 fold change (bafetinib),log2 fold change [2]
TMEM44 (UniProt Q2T9K0),inactive: -0.103,inactive: -0.136,–,–,inactive: 0.233,–,inactive: -0.009,–,inactive: -0.141,–
TMEM222 (UniProt Q9H0R3),inactive: -0.114,inactive: -0.018,inactive: -0.004,–,inactive: 0.037,–,inactive: -0.153,inactive: 0.012,inactive: -0.001,–
TMEM214 (UniProt Q6NUQ4),inactive: -0.028,inactive: -0.02,inactive: -0.009,inactive: 0.045,inactive: -0.064,inactive: -0.058,inactive: 0.055,inactive: 0.023,inactive: -0.026,inactive: 0.038
TMPPE (UniProt Q6ZT21),inactive: -0.007,inactive: -0.07,inactive: 0.036,inactive: -0.026,–,inactive: 0.077,inactive: -0.051,inactive: 0.018,inactive: -0.047,inactive: 0.009
TMTC3 (UniProt Q6ZXV5),inactive: -0.04,inactive: -0.068,inactive: -0.003,inactive: 0.008,inactive: -0.044,inactive: -0.064,inactive: -0.003,inactive: 0.062,inactive: 0,inactive: -0.012
TNIP1 (UniProt Q15025),inactive: -0.117,inactive: -0.008,inactive: 0.077,inactive: -0.065,inactive: -0.001,inactive: 0.008,inactive: -0.014,inactive: 0.016,inactive: -0.009,inactive: 0.071
TPK1 (UniProt Q9H3S4),inactive: -0.004,inactive: -0.029,–,inactive: 0.059,inactive: 0.068,inactive: 0.036,inactive: -0.176,–,inactive: 0.031,inactive: 0.01
TOR1AIP1 (UniProt Q5JTV8),inactive: 0.031,inactive: 0.02,–,–,inactive: -0.044,–,–,–,inactive: 0.096,–
TNIK isoform 4 (UniProt Q9UKE5),inactive: -0.017,inactive: 0.012,inactive: -0.055,inactive: 0.038,inactive: 0.004,inactive: 0.153,inactive: 0.098,inactive: 0.205,inactive: -0.007,inactive: -0.04
TMEM192 (UniProt Q8IY95),inactive: 0.002,inactive: -0.016,inactive: -0.024,inactive: -0.014,inactive: 0.023,inactive: 0.017,inactive: 0.053,inactive: -0.016,inactive: 0.019,inactive: 0.038
TNRC6A (UniProt Q8NDV7),inactive: 0.285,inactive: -0.203,inactive: 0.057,inactive: -0.024,inactive: 0.024,inactive: 0.008,inactive: -0.259,inactive: 0.069,inactive: -0.085,inactive: 0.037
TMEM209 (UniProt Q96SK2),inactive: -0.384,inactive: -0.076,inactive: 0.076,inactive: -0.326,inactive: -0.248,inactive: 0.09,–,inactive: -0.07,inactive: 0.166,inactive: -0.012
TNIP2 (UniProt Q8NFZ5),inactive: -0.013,inactive: -0.034,inactive: -0.033,inactive: 0.024,–,inactive: 0.13,inactive: -0.044,inactive: 0.008,inactive: 0.026,inactive: 0.019
TPST2 (UniProt O60704),inactive: 0.028,inactive: 0.621,inactive: -0.046,active: -0.671,inactive: -0.029,inactive: 0.109,inactive: -0.043,inactive: 0.057,inactive: 0.022,inactive: 0.126
TNNI3K isoform 1 (UniProt Q59H18),inactive: 0.024,inactive: 0.012,–,inactive: -0.019,inactive: 0.023,inactive: -0.026,inactive: -0.067,inactive: 0.024,inactive: -0.011,inactive: 0.034
TOM1 (UniProt O60784),inactive: 0.03,inactive: -0.07,–,inactive: 0.085,inactive: -0.028,inactive: -0.034,inactive: 0.116,–,inactive: -0.003,inactive: -0.027
TNRC6C isoform 2 (UniProt Q9HCJ0),inactive: -0.008,inactive: -0.275,–,inactive: 0.013,inactive: 0.239,inactive: -0.481,inactive: -0.11,–,inactive: 0.055,inactive: 0.05

# Random excerpt: two records from the list
Target,log2 fold change (lapatinib),log2 fold change (pictilisib),log2 fold change (crizotinib),log2 fold change [1],log2 fold change (duvelisib),log2 fold change (gandotinib),log2 fold change (tozasertib),log2 fold change (doramapimod),log2 fold change (bafetinib),log2 fold change [2]
TPK1 (UniProt Q9H3S4),inactive: -0.004,inactive: -0.029,–,inactive: 0.059,inactive: 0.068,inactive: 0.036,inactive: -0.176,–,inactive: 0.031,inactive: 0.01
TMEM41A (UniProt Q96HV5),inactive: 0.009,inactive: 0.003,inactive: 0.047,inactive: -0.102,inactive: -0.003,inactive: 0.125,inactive: 0.027,inactive: 0.045,inactive: 0.057,inactive: 0.024
